Binding data for five substances are collected here from publication PMC6052104.

The chains behind the UniProt entries cited, without tags or fusion partners. Where a name states a change or a piece, a line headed by the entry shows the natural chain unless it says otherwise.
UniProt Q14676: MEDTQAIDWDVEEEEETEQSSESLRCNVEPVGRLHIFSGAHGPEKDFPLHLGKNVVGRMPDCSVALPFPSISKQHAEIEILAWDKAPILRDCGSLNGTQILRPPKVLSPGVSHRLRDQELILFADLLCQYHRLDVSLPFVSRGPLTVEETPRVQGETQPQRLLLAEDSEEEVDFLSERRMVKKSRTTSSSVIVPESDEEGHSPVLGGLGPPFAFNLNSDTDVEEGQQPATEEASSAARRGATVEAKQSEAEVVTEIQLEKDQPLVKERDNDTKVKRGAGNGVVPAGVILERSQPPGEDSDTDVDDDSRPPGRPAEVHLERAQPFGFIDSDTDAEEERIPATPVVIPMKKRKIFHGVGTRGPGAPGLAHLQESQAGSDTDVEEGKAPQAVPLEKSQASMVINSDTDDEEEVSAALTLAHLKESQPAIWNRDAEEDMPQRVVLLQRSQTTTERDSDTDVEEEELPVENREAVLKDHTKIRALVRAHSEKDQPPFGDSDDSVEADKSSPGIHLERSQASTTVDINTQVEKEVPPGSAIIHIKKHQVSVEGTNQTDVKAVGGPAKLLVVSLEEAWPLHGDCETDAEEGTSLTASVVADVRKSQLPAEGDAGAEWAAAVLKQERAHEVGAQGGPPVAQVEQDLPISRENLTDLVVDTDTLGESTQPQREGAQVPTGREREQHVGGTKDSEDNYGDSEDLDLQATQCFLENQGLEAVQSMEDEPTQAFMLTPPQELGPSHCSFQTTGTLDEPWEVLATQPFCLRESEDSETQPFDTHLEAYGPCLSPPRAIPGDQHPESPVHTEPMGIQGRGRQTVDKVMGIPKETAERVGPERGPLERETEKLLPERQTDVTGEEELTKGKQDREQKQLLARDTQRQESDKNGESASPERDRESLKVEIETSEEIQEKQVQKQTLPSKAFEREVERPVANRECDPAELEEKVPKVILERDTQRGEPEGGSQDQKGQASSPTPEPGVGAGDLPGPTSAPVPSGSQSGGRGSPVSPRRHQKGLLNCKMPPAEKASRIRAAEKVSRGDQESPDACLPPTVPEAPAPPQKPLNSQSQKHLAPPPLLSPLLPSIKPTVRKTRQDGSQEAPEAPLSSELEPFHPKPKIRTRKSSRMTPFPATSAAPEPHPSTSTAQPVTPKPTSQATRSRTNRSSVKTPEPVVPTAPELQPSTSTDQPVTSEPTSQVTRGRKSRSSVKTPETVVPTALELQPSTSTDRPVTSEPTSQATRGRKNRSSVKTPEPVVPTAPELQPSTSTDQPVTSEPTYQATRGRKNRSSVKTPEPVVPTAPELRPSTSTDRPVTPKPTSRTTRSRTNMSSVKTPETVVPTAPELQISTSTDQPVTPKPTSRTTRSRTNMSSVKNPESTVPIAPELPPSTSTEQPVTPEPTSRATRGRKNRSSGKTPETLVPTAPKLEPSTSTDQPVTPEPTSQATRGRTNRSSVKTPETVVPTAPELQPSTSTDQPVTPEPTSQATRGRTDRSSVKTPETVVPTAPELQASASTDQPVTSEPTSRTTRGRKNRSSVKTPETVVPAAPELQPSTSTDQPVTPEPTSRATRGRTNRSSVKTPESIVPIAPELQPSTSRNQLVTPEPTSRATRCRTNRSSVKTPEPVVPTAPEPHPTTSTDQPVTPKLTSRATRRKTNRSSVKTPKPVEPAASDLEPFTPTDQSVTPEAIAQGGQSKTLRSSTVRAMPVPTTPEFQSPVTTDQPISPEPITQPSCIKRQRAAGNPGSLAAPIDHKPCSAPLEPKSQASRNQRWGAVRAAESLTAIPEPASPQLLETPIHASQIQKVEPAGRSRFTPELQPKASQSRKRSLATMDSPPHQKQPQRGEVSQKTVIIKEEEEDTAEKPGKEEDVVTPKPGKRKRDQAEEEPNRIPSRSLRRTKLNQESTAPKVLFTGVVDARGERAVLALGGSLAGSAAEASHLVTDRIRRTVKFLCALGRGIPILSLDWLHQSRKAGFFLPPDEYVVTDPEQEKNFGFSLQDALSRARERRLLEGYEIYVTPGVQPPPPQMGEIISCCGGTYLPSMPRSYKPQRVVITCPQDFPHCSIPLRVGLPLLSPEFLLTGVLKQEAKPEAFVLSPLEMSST
UniProt Q9H9B1: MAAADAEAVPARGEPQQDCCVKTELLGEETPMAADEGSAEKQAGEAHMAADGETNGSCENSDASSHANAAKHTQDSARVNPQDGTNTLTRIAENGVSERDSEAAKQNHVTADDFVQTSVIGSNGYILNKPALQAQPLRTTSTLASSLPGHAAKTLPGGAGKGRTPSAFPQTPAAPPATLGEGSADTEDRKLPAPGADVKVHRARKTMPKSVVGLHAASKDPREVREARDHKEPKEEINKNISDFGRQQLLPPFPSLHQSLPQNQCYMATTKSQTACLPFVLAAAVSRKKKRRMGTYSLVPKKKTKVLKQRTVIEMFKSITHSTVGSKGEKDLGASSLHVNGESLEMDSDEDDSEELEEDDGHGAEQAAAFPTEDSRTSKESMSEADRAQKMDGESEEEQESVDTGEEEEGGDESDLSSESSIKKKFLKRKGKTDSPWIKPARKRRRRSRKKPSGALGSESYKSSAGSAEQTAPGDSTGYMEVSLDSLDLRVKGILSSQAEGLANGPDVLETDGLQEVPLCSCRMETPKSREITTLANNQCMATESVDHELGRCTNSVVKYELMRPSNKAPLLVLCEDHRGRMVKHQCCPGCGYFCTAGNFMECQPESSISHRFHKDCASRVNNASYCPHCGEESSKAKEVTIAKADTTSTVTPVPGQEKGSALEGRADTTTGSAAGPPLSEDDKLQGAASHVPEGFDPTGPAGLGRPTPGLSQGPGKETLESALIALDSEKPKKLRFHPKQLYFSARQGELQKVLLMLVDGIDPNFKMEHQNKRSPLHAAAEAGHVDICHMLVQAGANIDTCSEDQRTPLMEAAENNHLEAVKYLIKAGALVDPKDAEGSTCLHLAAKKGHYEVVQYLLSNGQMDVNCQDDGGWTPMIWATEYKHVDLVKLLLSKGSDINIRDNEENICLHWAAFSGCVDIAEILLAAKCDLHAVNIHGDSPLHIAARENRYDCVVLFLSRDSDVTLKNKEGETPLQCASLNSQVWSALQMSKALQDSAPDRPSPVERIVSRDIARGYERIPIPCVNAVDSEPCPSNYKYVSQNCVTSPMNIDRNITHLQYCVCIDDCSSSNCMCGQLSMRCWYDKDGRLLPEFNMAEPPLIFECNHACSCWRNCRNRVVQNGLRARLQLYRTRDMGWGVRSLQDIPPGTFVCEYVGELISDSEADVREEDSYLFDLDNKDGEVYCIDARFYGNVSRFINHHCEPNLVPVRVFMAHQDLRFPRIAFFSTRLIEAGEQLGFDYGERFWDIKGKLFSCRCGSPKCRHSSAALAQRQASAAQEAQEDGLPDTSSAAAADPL
UniProt Q96KQ7: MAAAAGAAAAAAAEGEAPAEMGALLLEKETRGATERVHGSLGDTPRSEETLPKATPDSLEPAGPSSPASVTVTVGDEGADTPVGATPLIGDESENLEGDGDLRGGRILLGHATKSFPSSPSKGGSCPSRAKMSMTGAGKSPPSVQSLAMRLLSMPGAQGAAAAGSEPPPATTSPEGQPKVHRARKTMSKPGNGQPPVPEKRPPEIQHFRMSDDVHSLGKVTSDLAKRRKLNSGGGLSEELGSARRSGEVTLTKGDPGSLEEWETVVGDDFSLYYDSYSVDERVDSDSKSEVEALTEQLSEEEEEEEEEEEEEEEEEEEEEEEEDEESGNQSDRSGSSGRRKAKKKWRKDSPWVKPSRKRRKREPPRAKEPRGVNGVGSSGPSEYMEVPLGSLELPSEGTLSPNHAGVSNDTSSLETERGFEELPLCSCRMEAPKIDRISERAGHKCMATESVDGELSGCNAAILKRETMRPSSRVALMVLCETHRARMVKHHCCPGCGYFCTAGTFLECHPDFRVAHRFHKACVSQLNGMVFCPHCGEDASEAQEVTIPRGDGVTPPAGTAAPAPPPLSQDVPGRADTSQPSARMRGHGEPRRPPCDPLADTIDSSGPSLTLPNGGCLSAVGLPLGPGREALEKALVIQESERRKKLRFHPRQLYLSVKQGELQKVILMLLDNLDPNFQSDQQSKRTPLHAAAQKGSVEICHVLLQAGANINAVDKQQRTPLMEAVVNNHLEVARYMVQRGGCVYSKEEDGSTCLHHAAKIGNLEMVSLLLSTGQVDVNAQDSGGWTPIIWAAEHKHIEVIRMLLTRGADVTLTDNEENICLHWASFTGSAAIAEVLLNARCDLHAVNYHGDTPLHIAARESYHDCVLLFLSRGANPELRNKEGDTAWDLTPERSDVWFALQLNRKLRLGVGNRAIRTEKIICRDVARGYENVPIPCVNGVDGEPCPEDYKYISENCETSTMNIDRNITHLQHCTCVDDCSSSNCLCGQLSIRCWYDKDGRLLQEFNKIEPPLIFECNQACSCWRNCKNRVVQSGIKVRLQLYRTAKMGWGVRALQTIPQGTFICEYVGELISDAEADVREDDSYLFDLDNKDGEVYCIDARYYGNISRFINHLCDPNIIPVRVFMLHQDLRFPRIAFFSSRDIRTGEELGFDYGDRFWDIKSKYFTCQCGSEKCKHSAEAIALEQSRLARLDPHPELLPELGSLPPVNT
UniProt O60934: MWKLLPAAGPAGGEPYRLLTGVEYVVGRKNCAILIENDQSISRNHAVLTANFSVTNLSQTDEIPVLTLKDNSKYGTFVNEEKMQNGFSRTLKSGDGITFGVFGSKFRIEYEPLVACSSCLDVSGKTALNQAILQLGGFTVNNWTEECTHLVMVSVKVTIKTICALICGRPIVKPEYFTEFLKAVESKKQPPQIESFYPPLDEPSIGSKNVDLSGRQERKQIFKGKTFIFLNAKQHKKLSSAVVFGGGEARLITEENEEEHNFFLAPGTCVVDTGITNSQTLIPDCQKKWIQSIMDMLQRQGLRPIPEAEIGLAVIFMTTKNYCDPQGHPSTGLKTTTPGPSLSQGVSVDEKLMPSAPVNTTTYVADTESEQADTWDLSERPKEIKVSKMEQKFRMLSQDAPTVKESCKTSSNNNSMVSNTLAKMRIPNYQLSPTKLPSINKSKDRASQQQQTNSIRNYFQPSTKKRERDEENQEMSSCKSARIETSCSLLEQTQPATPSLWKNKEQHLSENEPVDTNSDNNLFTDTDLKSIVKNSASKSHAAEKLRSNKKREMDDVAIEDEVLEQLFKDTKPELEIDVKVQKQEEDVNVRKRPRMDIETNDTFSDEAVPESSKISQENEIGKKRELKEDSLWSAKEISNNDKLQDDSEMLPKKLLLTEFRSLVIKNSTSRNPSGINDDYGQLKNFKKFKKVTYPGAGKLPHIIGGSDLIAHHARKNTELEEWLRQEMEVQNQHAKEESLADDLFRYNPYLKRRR

No constants are given. Whether binding was seen depends on the method and setting. In cells and extracts the contact can be indirect. Some entries that bind do so weakly or less than the wild type.

The target in assay [1] is mediator of DNA damage checkpoint 1 (MDC1), endogenous (human (endogenous in U2OS and MCF7)) (UniProt Q14676). Put plainly: co-IP; untransfected U2OS cells, endogenous proteins, exposed or not to NCS (500 ng/ml, 30 min); nuclear chromatin-associated complexes, Dynabeads Protein G with antibody 4 h at 4 C, washed with TNE buffer; immunoblot.
For assay [2] the target is unchanged. Nature of the assay: co-IP; U2OS and MCF7 cells transfected with FLAG-EHMT1 or FLAG-EHMT2, exposed or not to NCS (500 ng/ml, 30 min), in U2OS also with 10 uM ATM inhibitor KU-55933 for 100 min before NCS; nuclear chromatin-associated complexes (nuclear complex co-IP kit), Dynabeads Protein G with antibody 4 h at 4 C, washed 5 times with TNE buffer (0.1% NP40, 50 mM Tris-HCl pH 7.6, 150 mM NaCl, 5 mM EDTA); immunoblot.

Assay [3] has the same target. Put plainly: proximity ligation; in situ PLA (Duolink) in fixed U2OS and MCF7 cells transfected with FLAG-EHMT1 or FLAG-EHMT2; MDC1 antibody combined with Flag antibody; untreated or 1 h after NCS (50 ng/ml, 15 min) or Zeocin (100 ug/ml, 1 h).
Assay [4] concerns the target HA-tagged MDC1 K45A (unmethylated mutant) (human) (UniProt Q14676). Put plainly: co-IP; U2OS cells transfected with HA-tagged MDC1 (WT or K45A); nuclear chromatin-associated complexes, Dynabeads Protein G with antibody 4 h at 4 C, washed with TNE buffer; blots for ATM, NBS1 and MRE11.
Assay [5] concerns the target HA-tagged MDC1 wild type (full length) (human) (UniProt Q14676). Described as above.

Take “EHMT1, endogenous (from UniProt Q9H9B1 1-1298) (enzyme)”: the binding entry in assay [1] is given as “binds”. Still for that read-out and setting: the same measure for “EHMT2, endogenous (from UniProt Q96KQ7 1-1210) (enzyme)”: “binds weakly”. Consider “FLAG-tagged EHMT1 (euchromatic histone-lysine N-methyltransferase 1) (from UniProt Q9H9B1 1-1298) (enzyme)”, for which the binding entry in assay [2] and in assay [3] was “binds” in each case.

As for “FLAG-tagged EHMT2 (euchromatic histone-lysine N-methyltransferase 2) (from UniProt Q96KQ7 1-1210) (enzyme)”, the binding entry in assay [2] is listed as “binds weakly”; in assay [3], “binds”. Turning to “NBS1, endogenous (from UniProt O60934 1-754)”, the binding entry in assay [4] and in assay [5] was “binds” each time.
